Results published in patent US11585779B2, “Biosensor and method of using the same for evaluation of antioxidant capacity” (Nanjing Agricultural University, priority 2017, dated 2023).
Some entries share one result that the patent states for a list of compounds. For at least one compound, name, drawing or mass did not settle the structure.

System: macrophage RAW264.7
Assay: Evaluation of antioxidant capacity with macrophage RAW264.7 biosensor (PMA stimulation, differential pulse voltammetry)
Assay type: cell-based
Conditions: FIG. 7; 0.6% solutions; Lactobacillus plantarum NJAU-01 at 10^10 CFU/mL
Method: The electrochemical experiments in 3) can be a differential pulse voltammetry (DPV), and the DPV conditions can be as follows: scanning range: -0.2 to 0.6 V, amplitude: 0.05 V.
The relative antioxidant capacity value in 5) can be calculated by the following equation:
[formula] where RAC is the relative antioxidant capacity value, I0 is the peak current obtained in the presence of 100 ng/mL PMA, Is is the peak current in the presence of the test sample, and I is the peak current in the absence of PMA.
immersing a third biosensor in Tyrode's buffer at 37° C. for 10 min, washing the third biosensor with PBS buffer for 3 times, connecting the third biosensor to a third electrochemical workstation, and conducting an electrochemical experiment of the third biosensor in a solution containing 1.0 mM Fe(CN)6^3−, 1.0 mM Fe(CN)6^4− or 0.1 M PBS, recording the current signal, reading the peak current and marking as I. […]
Positive control: a first biosensor was immersed in Tyrode's buffer at 37° C. […] The […] was electrochemically detected in a solution containing 1.0 mM Fe(CN)6^3−, and the current signal was recorded and the peak current was read as I0=84.6 μA. […]
3) Electrochemical experiment: the biosensor IV was used for electrochemical experiment in a solution containing 1.0 mM Fe(CN)6^4−. Subsequently, the current signal was recorded and the peak current Is2 was read, where Is2=24.7 μA. […]

Compound | antioxidant capacity (class by RAC value)
O=C1O[C@H]([C@@H](O)CO)C(O)=C1O [VC, Vitamin C] | strong (a value of RAC greater than 70% indicates that the test sample has strong antioxidant capacity)
Cc1c(C)c2c(c(C)c1O)CC[C@@](C)(CCC[C@H](C)CCC[C@H](C)CCCC(C)C)O2 [VE, Vitamin E] | strong (a value of RAC greater than 70% indicates that the test sample has strong antioxidant capacity)
